{"source": "the supplement of paper PMC5949888", "note": "Most values lie at the floor of the assay. Slopes are relative: functional sequences can read slightly below zero.", "data": [{"tested_on": "Saccharomyces cerevisiae PS128 hsf1 delta, HSF1(1-493) fusion", "assay": "growth estimate (transactivation domain function in HSF1 fusion, heat-shock survival) (a.u. (slope of normalised read count over time)); higher = stronger growth at 37°C, i.e. more transactivation activity", "conditions": "library: random library", "values": [{"substance": "NLRGRLSGYRPENLDRVAGR", "growth estimate": "< -0.25"}, {"substance": "DGGAHRQ", "growth estimate": "< -0.25"}, {"substance": "ERFRHGL", "growth estimate": "< -0.25"}, {"substance": "NTYWQLYSI", "growth estimate": "< -0.25"}, {"substance": "RILCIVWGVCVGSDNFRQD", "growth estimate": "< -0.25"}, {"substance": "VSEMR", "growth estimate": "< -0.25"}, {"substance": "TRLVNVYQ", "growth estimate": "< -0.25"}, {"substance": "GAWNGSEELLSGITRFS", "growth estimate": "< -0.25"}, {"substance": "RVSGLSLGFLLYLFITRRAG", "growth estimate": "< -0.25"}, {"substance": "LEFFLSLLGTRYLPYYVRPP", "growth estimate": "< -0.25"}, {"substance": "YAAE", "growth estimate": "< -0.25"}, {"substance": "HPPRLFS", "growth estimate": "< -0.25"}, {"substance": "YPVLGPHLPTGYSTMQTTSC", "growth estimate": "< -0.25"}, {"substance": "ARGYVTPVNSVPLALMQPLL", "growth estimate": -0.204}, {"substance": "LEEVALRYGISVVRVAGGRN", "growth estimate": "< -0.25"}, {"substance": "DQNSPVY", "growth estimate": "< -0.25"}, {"substance": "IQPCAGVMVPQCFVMYSLGR", "growth estimate": "< -0.25"}, {"substance": "TVLPDELPSTELNLAP", "growth estimate": "< -0.25"}, {"substance": "GHY", "growth estimate": "< -0.25"}, {"substance": "FTISVVR", "growth estimate": "< -0.25"}, {"substance": "VQPHMLVTGRGMLGWVHADG", "growth estimate": "< -0.25"}, {"substance": "RQHARPPLGIWQKPTSCAQY", "growth estimate": "< -0.25"}, {"substance": "LRGRSSLLRINGQ", "growth estimate": "< -0.25"}, {"substance": "IGGSAIGRGYGFNHLGYMPS", "growth estimate": "< -0.25"}, {"substance": "LWCLGPRDGGGQLTPRLRVH", "growth estimate": "< -0.25"}, {"substance": "LRYPFRVENRTELREVCTFK", "growth estimate": "< -0.25"}, {"substance": "AYSNVAAMGHCTLTPLVLTA", "growth estimate": "< -0.25"}, {"substance": "RMVNQSANLRFKRPSSRDCL", "growth estimate": "< -0.25"}, {"substance": "MFVSDSVSKFG", "growth estimate": "< -0.25"}, {"substance": "KMQ", "growth estimate": "< -0.25"}, {"substance": "LYKRCSTGFKIQKIKEPFAI", "growth estimate": -0.245}, {"substance": "RDPLIITSLFCAIRLVWESR", "growth estimate": "< -0.25"}, {"substance": "DTTPRRSRLPG", "growth estimate": "< -0.25"}, {"substance": "PVVGKLAA", "growth estimate": "< -0.25"}, {"substance": "GSPKEGCYTGVSG", "growth estimate": "< -0.25"}, {"substance": "ILKVCGGLGYRGL", "growth estimate": "< -0.25"}, {"substance": "DVELFINPLLISAVWLLLGG", "growth estimate": "< -0.25"}, {"substance": "QGIGMKTAHPL", "growth estimate": "< -0.25"}, {"substance": "AMIFR", "growth estimate": 0.183}, {"substance": "IQGVSNGVLGYVLVVSALNR", "growth estimate": "< -0.25"}, {"substance": "SHYLSGVTS", "growth estimate": "< -0.25"}, {"substance": "RTRD", "growth estimate": "< -0.25"}, {"substance": "PSSDITGIFSVPGRKILAQL", "growth estimate": "< -0.25"}, {"substance": "PTHGTLKMFAGGFALRSTM", "growth estimate": "< -0.25"}, {"substance": "RSYQPSVNGRGQCQANCRVT", "growth estimate": "< -0.25"}, {"substance": "LVCWGSPLCCRQIQ", "growth estimate": "< -0.25"}, {"substance": "LPGGYCLVGRMTPVLFFVAS", "growth estimate": -0.219}, {"substance": "LSERPF", "growth estimate": "< -0.25"}, {"substance": "ILAALRRGRYRAAPLLM", "growth estimate": "< -0.25"}, {"substance": "CGEFLPFPRLVCMRDPQSYQ", "growth estimate": "< -0.25"}, {"substance": "GPLVGQDNEETISAEHSLRV", "growth estimate": "< -0.25"}, {"substance": "AYPWIC", "growth estimate": "< -0.25"}, {"substance": "RGMRQARLDHPLFGRGMQSE", "growth estimate": "< -0.25"}, {"substance": "ILSDLTGIVTGLTPSTRGSS", "growth estimate": "< -0.25"}, {"substance": "NGRMQS", "growth estimate": "< -0.25"}, {"substance": "LQKSTGQTAGHILALCCAGR", "growth estimate": "< -0.25"}, {"substance": "GRWCMVRYGVDQCLSRCHLV", "growth estimate": "< -0.25"}, {"substance": "NVQEFRLKVSGIRYAWPPRS", "growth estimate": "< -0.25"}, {"substance": "LVVG", "growth estimate": "< -0.25"}, {"substance": "SRAALYLVEEAGVTTILFAS", "growth estimate": "< -0.25"}, {"substance": "IIEDSVLM", "growth estimate": "< -0.25"}, {"substance": "QERAVIVLALKGIYETLSPT", "growth estimate": "< -0.25"}, {"substance": "LTQDMLRGFFRGPVVQRTEF", "growth estimate": "< -0.25"}, {"substance": "LVSSRHLSARPEEVVDDGWS", "growth estimate": "< -0.25"}, {"substance": "PIALAEVSVKALLIFWLLDS", "growth estimate": -0.245}, {"substance": "GKAAQGPC", "growth estimate": "< -0.25"}, {"substance": "LVKCPCQYSPVCSHYRSLTR", "growth estimate": "< -0.25"}, {"substance": "RYFMAACPFGRYLK", "growth estimate": "< -0.25"}, {"substance": "GNSGMQGVARIARSML", "growth estimate": "< -0.25"}, {"substance": "HGVTMRKDNHNQSIIYTPVS", "growth estimate": "< -0.25"}, {"substance": "PPLTSREVGFWFQLGW", "growth estimate": "< -0.25"}, {"substance": "KSEWVVLEPWSD", "growth estimate": "< -0.25"}, {"substance": "LWAWQRSRDYPH", "growth estimate": "< -0.25"}, {"substance": "ESVAKHCQLHSPTADTG", "growth estimate": "< -0.25"}, {"substance": "AQVGALPGSRSVPREANPDA", "growth estimate": "< -0.25"}, {"substance": "MLKQGN", "growth estimate": "< -0.25"}, {"substance": "PYDGAFFIGRKNLA", "growth estimate": "< -0.25"}, {"substance": "LVARDYVHSFKTDCGLGNRS", "growth estimate": "< -0.25"}, {"substance": "IVVSCQESRYGSRARLVVLG", "growth estimate": "< -0.25"}, {"substance": "GEAFVANLSQ", "growth estimate": -0.248}, {"substance": "AASSTLNVADVYSGRYARNV", "growth estimate": "< -0.25"}, {"substance": "HVGRSGNDGVPKNPIGSRGA", "growth estimate": "< -0.25"}, {"substance": "MLLPHKLRGRTVGRRLAVPP", "growth estimate": "< -0.25"}, {"substance": "DPVLTKQPRGLVPR", "growth estimate": "< -0.25"}, {"substance": "GCGQLAALPRTTR", "growth estimate": "< -0.25"}, {"substance": "SSRNSDGSRAKSAPLWASEK", "growth estimate": "< -0.25"}, {"substance": "MRD", "growth estimate": "< -0.25"}, {"substance": "LLALWSDMSEI", "growth estimate": "< -0.25"}, {"substance": "QWVCKHHSQLNHPTHFELRR", "growth estimate": "< -0.25"}, {"substance": "VHTVVRLCRVEVGVAIPGGP", "growth estimate": "< -0.25"}, {"substance": "RSRLQPEVKMGSNRCIAALR", "growth estimate": "< -0.25"}, {"substance": "TVTVPRV", "growth estimate": "< -0.25"}, {"substance": "VQARIIPSTLRTARSFGTWL", "growth estimate": "< -0.25"}, {"substance": "PDKSGGNRGRDAYDLEHTCG", "growth estimate": "< -0.25"}, {"substance": "GTSVKHLWGAKSFVCIPKHQ", "growth estimate": "< -0.25"}, {"substance": "FWQ", "growth estimate": "< -0.25"}, {"substance": "PNAVVFFALQFRVDRFSHLE", "growth estimate": "< -0.25"}, {"substance": "STGVKRIAVLPRL", "growth estimate": "< -0.25"}, {"substance": "HAGSSCTMGDVRFSQVKHIG", "growth estimate": "< -0.25"}]}]}
